# Library screening results

Source: ChEMBL document CHEMBL3988442, “University of Dundee, Small-Polar-MMV Screening Library” (2021).

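Whole-cell assay for inhibitors of Mycobacterium tuberculosis growth, labelled Cornell in the record; the read-out is not stated. The concentration is filed as 10 mM, unlikely as a test dose, so the dose is not known. Higher means stronger inhibition (inferred from two other growth screens of the library). About 53,000 compounds were tested under these conditions; 1.7% (about 900) showed 50% or more at least once.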

Each number is a percent effect as filed.
The record does not define 0% and 100%; most values in the screen are far below 50% and negative numbers occur (in some assays of this library far below -100).
Compounds were drawn at random from those tested, without regard to their results.

- Cc1nc(C(=O)N2CCOC(Cc3ccc(F)cc3)C2)co1 (centres unmarked) | -0.8278%
- [H][C@@]12CCCCN(C)[C@]1([H])[C@@H](c1ccccc1)CCN2S(=O)(=O)N(CC)CC | 1.905%
- CC(C)c1cc(N2CCC(CCC(=O)NC3CC3)CC2)n2nccc2n1 | 19.75%
- C/C(=C\c1ccccc1)CN1CCCC(c2nnc3n2CCNCC3)C1.Cl (centres unmarked) | -12.59%
- CS(=O)(=O)NC(=O)c1nnn(-c2cccc(F)c2)c1C1CC1 | 23.14%
- Cc1nc(N2CCC(C(O)c3nccn3C)CC2)c2c(C)noc2n1 (centres unmarked) | -20.96%
- Cc1nc(C)n(CC2CN(Cc3nccs3)Cc3nccn3C2)n1.O=C(O)C(F)(F)F (centres unmarked) | -24.39%
- CC(C)=CCC1(C(=O)O)CCCN(CCC(=O)NC2CC2)C1 (centres unmarked) | -14.24%
- COCC(=O)N(Cc1cccnc1)CC1CCCN(C2CCCCC2)C1 (centres unmarked) | 17.82%
- Cn1cnc2c1CCN(CCCOc1ccc(S(C)(=O)=O)cc1)C2 | 13.22%
- COC1CN(C(=O)OCC(C)C)CCC(=O)N(C)c2ccccc21 (centres unmarked) | 9.265%
- CCc1nc(C)c(C2CC(=O)Nc3c2c(-c2ccccn2)nn3C)[nH]1 (centres unmarked) | -17%
- [H][C@@]12CC[C@H](Oc3ccccc3F)[C@]1([H])CN(C(=O)Cn1ccnc1)C2 | -34.19%
- O=C(NCCc1ccccc1)NCC(O)c1cccc(F)c1 (centres unmarked) | -14.35%
- c1cc(CCN2CCC(c3n[nH]c(C4CC4)n3)CC2)ccn1 | -29.02%
- Cc1ccc(-n2nnc(CC(=O)N3CCSCC3)c2C)cc1 | 13.56%
- CC(C)Cn1c2c(ccc1=O)CC(NC(=O)c1ccsc1)CC2 (centres unmarked) | 3.708%
- CCS(=O)(=O)N(C)C1CCN(C(=O)c2cccc(Cl)c2)CC1 | 19.97%
- CC(=O)NCC(=O)N1CCn2cc(CN3CCN(C)CC3)nc2C1.O=C(O)C(F)(F)F.O=C(O)C(F)(F)F | -10.57%
- CN1CCC2(CCN(CC3CCOCC3)CC2)C1=O.O=C(O)C(F)(F)F | 17.31%
- CCc1ccc(CNc2ccccc2CN2CCC(O)CC2)o1 | -35.44%
- O=C(O)C(F)(F)F.[H][C@]12CCN(S(C)(=O)=O)CC[C@@]1([H])S(=O)(=O)CCN2Cc1cccc(C)n1 | -21.32%
- CC(C)c1sc(Br)nc1C(=O)NCc1ccncc1 | -7.528%
- Cc1cc(C(=O)N(CCN(C)C)Cc2ccc(Cl)cc2)no1 | 29.87%
- COCCN1CCc2ncnc(NC(C)C)c2CC1.O=C(O)C(F)(F)F | 5.417%
- N#Cc1ccc(N2CCC(OCCc3ccccc3)CC2)nc1 | 51.1%
- Cc1ccc(S(=O)(=O)N(CC2CCOC2)C2CC2)cc1N(C)C (centres unmarked) | -21.27%
- Cc1cccc(OC2CCN(C(=O)Cn3ccc4ccccc43)CC2)n1 | 59.2%
- COC(=O)c1cccc(-c2nc(CC3CCN(C)CC3)no2)c1 | 22.83%